Measured values published in PMC4432619.
No constants are given. Whether binding was seen depends on the method and setting. Binding can be weak; no strength is given.

By UniProt entry, the sequences of proteins in these tests, tags left out. Where a name states a change or a piece, a line headed by the entry shows the natural chain unless it says otherwise. Residues count along the entry.
UniProt O95466: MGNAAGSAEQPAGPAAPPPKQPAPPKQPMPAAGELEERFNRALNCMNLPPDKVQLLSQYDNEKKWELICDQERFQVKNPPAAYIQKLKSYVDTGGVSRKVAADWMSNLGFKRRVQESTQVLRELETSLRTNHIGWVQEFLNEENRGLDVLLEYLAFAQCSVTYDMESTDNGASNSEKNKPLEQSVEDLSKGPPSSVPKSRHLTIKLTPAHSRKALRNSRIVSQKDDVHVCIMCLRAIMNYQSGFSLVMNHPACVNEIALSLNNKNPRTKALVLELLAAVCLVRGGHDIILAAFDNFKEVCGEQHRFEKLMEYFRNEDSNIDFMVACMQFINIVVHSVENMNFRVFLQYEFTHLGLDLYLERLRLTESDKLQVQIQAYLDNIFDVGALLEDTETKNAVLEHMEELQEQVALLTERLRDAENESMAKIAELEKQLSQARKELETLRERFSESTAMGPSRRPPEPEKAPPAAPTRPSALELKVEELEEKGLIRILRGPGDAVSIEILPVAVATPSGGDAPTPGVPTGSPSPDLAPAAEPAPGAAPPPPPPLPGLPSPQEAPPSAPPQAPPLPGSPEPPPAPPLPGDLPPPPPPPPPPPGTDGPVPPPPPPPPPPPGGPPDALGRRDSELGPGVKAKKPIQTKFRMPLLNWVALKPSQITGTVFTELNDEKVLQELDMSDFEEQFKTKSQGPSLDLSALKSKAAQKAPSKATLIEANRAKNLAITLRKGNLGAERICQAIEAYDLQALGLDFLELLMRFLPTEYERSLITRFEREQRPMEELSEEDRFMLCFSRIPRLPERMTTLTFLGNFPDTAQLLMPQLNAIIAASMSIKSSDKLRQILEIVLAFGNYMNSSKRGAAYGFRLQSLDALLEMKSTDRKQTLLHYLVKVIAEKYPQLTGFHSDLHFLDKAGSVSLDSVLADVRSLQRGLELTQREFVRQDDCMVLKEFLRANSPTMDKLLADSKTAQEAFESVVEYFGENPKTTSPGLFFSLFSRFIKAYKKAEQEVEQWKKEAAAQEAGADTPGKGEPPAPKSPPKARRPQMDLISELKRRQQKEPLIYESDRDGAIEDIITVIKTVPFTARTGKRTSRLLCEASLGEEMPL
UniProt P60953, residues 1-179: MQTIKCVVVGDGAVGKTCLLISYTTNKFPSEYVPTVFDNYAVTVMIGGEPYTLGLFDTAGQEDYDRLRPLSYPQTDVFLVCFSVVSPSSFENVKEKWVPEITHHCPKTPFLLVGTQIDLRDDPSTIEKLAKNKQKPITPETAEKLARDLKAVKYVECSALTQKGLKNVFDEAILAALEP

Biological target: FMNL1NCC (FMNL1 1–458, GBD-FH3-CC) (human) (UniProt O95466)
Assay: SEC; analytical gel filtration, Superdex S200 (10/300 GL), typically 100 μg of each protein, 20 mM Tris/HCl pH 8.0, 150 mM NaCl, 1 mM DTE (2.5 mM MgCl2 with Rho GTPases), 0.5 ml/min, 293 K; both purified

binding: binds
Substance: Cdc42 (1–179) (from UniProt P60953 1-179) (domain or fragment)
